The text below walks through data of paper PMC8621254.

Chains of the proteins cited; added tags and fusions are not shown. A line that says so, or that is headed by a name, gives the form on record, which may keep a tag or linker.
UniProt P08047, whole entry: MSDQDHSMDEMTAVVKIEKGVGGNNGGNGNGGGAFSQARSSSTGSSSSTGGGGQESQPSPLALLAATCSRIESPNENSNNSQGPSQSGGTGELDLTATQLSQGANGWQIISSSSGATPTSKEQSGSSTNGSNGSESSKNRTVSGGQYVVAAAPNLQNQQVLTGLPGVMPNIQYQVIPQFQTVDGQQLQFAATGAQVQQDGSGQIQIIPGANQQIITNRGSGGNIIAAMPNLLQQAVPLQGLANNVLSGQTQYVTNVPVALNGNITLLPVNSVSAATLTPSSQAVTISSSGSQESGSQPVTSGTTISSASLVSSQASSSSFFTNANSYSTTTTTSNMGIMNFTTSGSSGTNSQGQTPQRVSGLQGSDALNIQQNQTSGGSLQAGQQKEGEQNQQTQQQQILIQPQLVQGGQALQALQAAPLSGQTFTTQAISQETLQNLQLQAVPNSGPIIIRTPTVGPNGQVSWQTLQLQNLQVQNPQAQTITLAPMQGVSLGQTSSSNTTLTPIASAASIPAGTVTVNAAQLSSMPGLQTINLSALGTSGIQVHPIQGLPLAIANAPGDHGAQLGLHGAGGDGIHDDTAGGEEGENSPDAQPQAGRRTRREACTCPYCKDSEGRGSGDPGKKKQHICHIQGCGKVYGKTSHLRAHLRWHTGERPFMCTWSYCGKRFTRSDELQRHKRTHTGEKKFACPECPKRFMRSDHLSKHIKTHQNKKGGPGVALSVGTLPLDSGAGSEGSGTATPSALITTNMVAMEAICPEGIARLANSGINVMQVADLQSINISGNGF
AP-1 (c-Fos/c-Jun) (Homo sapiens), one chain, as listed by the source, chain 1 of 2: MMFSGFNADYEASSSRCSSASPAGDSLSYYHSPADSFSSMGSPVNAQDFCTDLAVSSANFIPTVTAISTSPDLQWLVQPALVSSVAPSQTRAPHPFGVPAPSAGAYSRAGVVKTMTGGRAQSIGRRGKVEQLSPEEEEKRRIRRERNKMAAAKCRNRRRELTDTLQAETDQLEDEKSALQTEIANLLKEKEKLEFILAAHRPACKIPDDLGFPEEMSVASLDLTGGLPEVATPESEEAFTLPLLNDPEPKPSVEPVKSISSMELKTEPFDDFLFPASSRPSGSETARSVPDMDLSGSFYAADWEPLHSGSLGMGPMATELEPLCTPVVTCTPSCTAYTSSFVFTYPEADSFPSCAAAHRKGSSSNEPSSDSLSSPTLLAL
AP-1 (c-Fos/c-Jun) (Homo sapiens), one chain, as listed by the source, chain 2 of 2: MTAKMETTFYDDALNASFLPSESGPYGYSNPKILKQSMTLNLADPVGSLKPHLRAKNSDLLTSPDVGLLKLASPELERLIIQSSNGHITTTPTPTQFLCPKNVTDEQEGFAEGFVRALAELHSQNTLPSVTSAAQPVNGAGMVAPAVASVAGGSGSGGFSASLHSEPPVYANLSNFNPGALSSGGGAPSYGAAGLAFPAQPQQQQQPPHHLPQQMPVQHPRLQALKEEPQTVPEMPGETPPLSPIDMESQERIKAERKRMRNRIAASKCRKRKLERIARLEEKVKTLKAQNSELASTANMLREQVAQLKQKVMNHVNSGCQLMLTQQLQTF

For at least one entry, the source does not settle the construct or the ends of the probe. Results from cells or extracts need not show a direct contact. For some of these results: No signal at the amounts used counts as a negative.

The subject of data set [1] is Sp1 + Sp3. The experiment in a line: EMSA. The following applies: labeled Sp1/3 probe, self-competition complete at 500-fold; 15 ug hCEC nuclear extract, 0.5 ug poly(dI:dC), 50 mM KCl, 10 mM Hepes pH 7.9, 10% glycerol, 0.1 mM EDTA, 0.5 mM DTT, 0.25 mM PMSF; 6% native gel in Tris-glycine, 4 C; protein in an extract; label: 5'-32P when used as probe. A general note: In EMSA bound probe runs differently from free probe, usually more slowly.

For data set [2], the system named is Sp1 + Sp3. The experiment in a line: competition with a labelled probe. The following applies: 15 ug hCEC nuclear extract, 0.5 ug poly(dI:dC), 50 mM KCl, 10 mM Hepes pH 7.9, 10% glycerol, 0.1 mM EDTA, 0.5 mM DTT, 0.25 mM PMSF, 6% native gel in Tris-glycine, 4 C, protein in an extract.
The subject of data set [3] is AP-1 (c-Fos/c-Jun) (Homo sapiens). The data set can be described thus: competition with a labelled probe. The settings on record: 15 ug hCEC nuclear extract, 0.5 ug poly(dI:dC), 50 mM KCl, 10 mM Hepes pH 7.9, 10% glycerol, 0.1 mM EDTA, 0.5 mM DTT, 0.25 mM PMSF, 6% native gel in Tris-glycine, 4 C, protein in an extract.
The test system is the same in data set [4]. The experiment in a line: EMSA. The settings on record: labeled AP-1 probe, self-competition at 500-fold; 15 ug hCEC nuclear extract, 0.5 ug poly(dI:dC), 50 mM KCl, 10 mM Hepes pH 7.9, 10% glycerol, 0.1 mM EDTA, 0.5 mM DTT, 0.25 mM PMSF; 6% native gel in Tris-glycine, 4 C; protein in an extract; label: 5'-32P when used as probe.
Another data set addresses Sp1 (Homo sapiens) (UniProt P08047). The experiment in a line: EMSA supershift. The following applies: Sp1 antibody; 15 ug hCEC nuclear extract, 0.5 ug poly(dI:dC), 50 mM KCl, 10 mM Hepes pH 7.9, 10% glycerol, 0.1 mM EDTA, 0.5 mM DTT, 0.25 mM PMSF; 6% native gel in Tris-glycine, 4 C; protein in an extract; label: 5'-32P when used as probe.
Data set [5] deals with Sp1 + Sp3. The experiment in a line: EMSA supershift. The following applies: Sp1 and Sp3 antibodies combined; 15 ug hCEC nuclear extract, 0.5 ug poly(dI:dC), 50 mM KCl, 10 mM Hepes pH 7.9, 10% glycerol, 0.1 mM EDTA, 0.5 mM DTT, 0.25 mM PMSF; 6% native gel in Tris-glycine, 4 C; protein in an extract; label: 5'-32P when used as probe.
In data set [6] the test system is AP-1 (c-Fos/c-Jun) (Homo sapiens). The experiment in a line: EMSA supershift. The following applies: c-Fos/c-Jun antibodies; 15 ug hCEC nuclear extract, 0.5 ug poly(dI:dC), 50 mM KCl, 10 mM Hepes pH 7.9, 10% glycerol, 0.1 mM EDTA, 0.5 mM DTT, 0.25 mM PMSF; 6% native gel in Tris-glycine, 4 C; protein in an extract; label: 5'-32P when used as probe.
[7] abbreviates: labeled CLU -203/-153, 500-fold.

“GATCATATCTGCGGGGCGGGGCAGAC / GATCCTGTGTCTGCCCCGCCCCGCAG [Sp1/3 consensus]”: the binding result in the data set on Sp1 + Sp3 [1] is recorded as “binds”; in the data set with Sp1 + Sp3 [2] (labeled CLU -203/-153, removes complexes a and c, label: 5'-32P when used as probe), “binds”; in data set [3] (labeled CLU -203/-153, AP-1 complex increased (unwounded extract), label: 5'-32P when used as probe), “no binding”.
On to “GATCCCCGCGTTGAGTCATTCGCCTC / GATCGAGGCGAATGACTCAACGCGGG [AP1 consensus]”, for which the binding result is listed as “binds” in data set [4]; “no binding” in the data set on Sp1 + Sp3 [2] (labeled CLU -203/-153, Sp1/Sp3 complexes unaffected, label: 5'-32P when used as probe); “binds” in data set [3] (labeled CLU -203/-153, removes complex b at 500-fold, label: 5'-32P when used as probe).
With “GATCCGGCATTCTTTGGGCGTGAGTCATGCAGGTTTGCAGCCAGCCCCAAAGGGG / GATCCCCCCTTTGGGGCTGGCTGCAAACCTGCATGACTCACGCCCAAAGAATGCC [CLU -203/-153]”, the binding result in the data set with Sp1 (Homo sapiens) is listed as “binds”; with Sp1 + Sp3 [5], “binds”; in data set [6] it was “binds”; in the data set with Sp1 + Sp3 [2] (labeled Sp1/3 probe, as efficient as Sp1/3 consensus, label: 5'-32P when used as probe), “binds”; in data set [3] (labeled AP-1 probe, label: 5'-32P when used as probe) it was “binds”.
In the case of “GATCCGGCATTCTTTGGGCGTGAGTCATGCAGGTTTGCATTTAGTTTCAAAGGGG / GATCCCCCCTTTGAAACTAAATGCAAACCTGCATGACTCACGCCCAAAGAATGCC [CLU -203/-153 Mutant 1]”, the binding result in the data set on Sp1 + Sp3 [2] (labeled Sp1/3 probe, as effective as wild type) is “binds”.
As to “GATCCGGCATTCTTTTTTTTTGAGTCATGCAGGTTTGCAGCCAGCCCCAAAGGGG / GATCCCCCCTTTGGGGCTGGCTGCAAACCTGCATGACTCAAAAAAAAAGAATGCC [CLU -203/-153 Mutant 2]”, the binding result in the data set with Sp1 + Sp3 [2] (labeled Sp1/3 probe, no competition up to 750-fold) is “no binding”; in data set [3] (labeled AP-1 probe, as efficient as AP-1 consensus), “binds”.
Regarding “TTATTTTGGATTGAAGCCAATATGAG (double strand) [NFI]”, the binding result (in the data set on Sp1 + Sp3 [2] (setting [7]); in data set [3] (setting [7])) was “no binding” throughout.
